In the supplement of paper PMC4604168 (melanoma cell lines):
This is one part of the list. Single values are uncertain, as repeats are few or missing.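 Imaging used 1,536-well plates; nuclei positive for cleaved PARP by antibody were divided by total DNA-stained nuclei to yield the apoptosis fraction. Doses for screening kept most cells viable, and cell lines differ markedly in resting and induced cleaved-PARP levels.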

Key:
Assay in all cases: cleaved PARP positive nuclei fraction relative to DMSO control; melanoma cells; higher = more apoptosis
Details in all cases: library dose: low library concentration; 72 h
CBRC034 = tested on: CBRC034 (line from a melanoma biopsy)
COLO792 = tested on: COLO792
COLO800 = tested on: COLO800
COLO829 = tested on: COLO829
G361 = tested on: G361
IPC-298 = tested on: IPC-298
IST-MEL1 = tested on: IST-MEL1
LB2518-MEL = tested on: LB2518-MEL
LOXIMVI = tested on: LOXIMVI
MZ2-MEL = tested on: MZ2-MEL
MeWo = tested on: MeWo
RPMI7951 = tested on: RPMI7951
RVH-421 = tested on: RVH-421
SkMel28 = tested on: SkMel28
SkMel30 = tested on: SkMel30
SkMel5 = tested on: SkMel5
UACC257 = tested on: UACC257
UACC62 = tested on: UACC62

| Compound | cleaved PARP positive nuclei fraction (CBRC034) [%] | cleaved PARP positive nuclei fraction (COLO792) [%] | cleaved PARP positive nuclei fraction (COLO800) [%] | cleaved PARP positive nuclei fraction (COLO829) [%] | cleaved PARP positive nuclei fraction (G361) [%] | cleaved PARP positive nuclei fraction (IPC-298) [%] | cleaved PARP positive nuclei fraction (IST-MEL1) [%] | cleaved PARP positive nuclei fraction (LB2518-MEL) [%] | cleaved PARP positive nuclei fraction (LOXIMVI) [%] | cleaved PARP positive nuclei fraction (MZ2-MEL) [%] | cleaved PARP positive nuclei fraction (MeWo) [%] | cleaved PARP positive nuclei fraction (RPMI7951) [%] | cleaved PARP positive nuclei fraction (RVH-421) [%] | cleaved PARP positive nuclei fraction (SkMel28) [%] | cleaved PARP positive nuclei fraction (SkMel30) [%] | cleaved PARP positive nuclei fraction (SkMel5) [%] | cleaved PARP positive nuclei fraction (UACC257) [%] | cleaved PARP positive nuclei fraction (UACC62) [%] |
| --- | --- | --- | --- | --- | --- | --- | --- | --- | --- | --- | --- | --- | --- | --- | --- | --- | --- | --- |
| COc1ccc(COc2ccc(Cc3cnc(N)nc3N)cc2OC)cc1 + O=C(O)C(=O)Nc1sc2c(c1C(=O)O)CCNC2 [TCS401] (first compound 1 µM, partner dose 1.66667 µM) | 253 | 100 | 79.4 | 96.9 | 90.2 | 41.6 | 91 | 164 | 69.2 | 82.5 | 75.2 | 93.9 | 151 | 122 | 41.3 | 87.6 | 75.2 | 47.4 |
| COc1cc2ncnc(Nc3ccc(Oc4ccccc4)cc3)c2cc1OC + c1cc(-c2cnn3cc(-c4ccc(OCCN5CCCCC5)cc4)cnc23)ccn1 [Dorsomorphin] (first compound 2 µM, partner dose 0.4 µM) | 72.1 | 81.1 | 101 | 100 | 93.6 | 174 | 45.5 | 59.5 | 115 | 47 | 61.4 | 67.3 | 21.9 | 164 | 210 | 61.1 | 103 | 19.1 |
| CN(C)S(=O)(=O)c1ccc2c(c1)/C(=C/c1cc3c([nH]1)CCCC3)C(=O)N2 + CCCCCCCCCCCC1=C(O)C(=O)C=C(O)C1=O [Embelin] (first compound 0.4 µM, partner dose 1.2 µM) | 101 | 170 | 87.3 | 130 | 69.4 | 34 | 169 | 78.2 | 24.1 | 139 | 245 | 185 | 85.6 | 222 | 21.3 | 133 | 218 | 60.5 |
| CCc1ccc(CCOc2ccc(CC3SC(=O)NC3=O)cc2)nc1 (configuration not stated) [pioglitazone] + Cn1cc(/C=C2\C(=O)Nc3cccnc32)c2ccccc21 [GW441756] (first compound 2 µM, partner dose 0.4 µM) | 85.2 | 242 | 204 | 96.6 | 195 | 25 | 121 | 86.2 | 23.3 | 122 | 78.7 | 40.5 | 54.7 | 65.4 | 10.2 | 62.5 | 99.6 | 116 |
| c1cc(-c2cnn3cc(-c4ccc(OCCN5CCCCC5)cc4)cnc23)ccn1 [Dorsomorphin] + O=c1cc(-c2cccc3c2Sc2ccccc2S3)oc(N2CCOCC2)c1 [KU55933] (first compound 0.4 µM, partner dose 1 µM) | 80.5 | 63.6 | 42.2 | 99.2 | 132 | 80.4 | 408 | 105 | 2850 | 84.5 | 28.9 | 113 | 26 | 88.7 | 45.3 | 198 | 141 | 314 |
| COC(=O)c1sccc1S(=O)(=O)Nc1ccc(Nc2ccccc2)cc1OC + COc1cc2ncnc(Nc3ccc(Oc4ccccc4)cc3)c2cc1OC [SrcI1] (first compound 1 µM, partner dose 2 µM) | 95.4 | 157 | 110 | 122 | 118 | 45.4 | 176 | 126 | 53.2 | 181 | 73.6 | 37.1 | 37.5 | 94.1 | 20.3 | 56.3 | 59.1 | 347 |
| COc1ccc(-c2ccc3c(N4CCOCC4)nc(N4C[C@@H](C)O[C@@H](C)C4)nc3n2)cc1CO + COc1ccc(COc2ccc(Cc3cnc(N)nc3N)cc2OC)cc1 [GW2580] (first compound 0.02 µM, partner dose 1 µM) | 91.9 | 50.8 | 76.5 | 85.6 | 90.6 | 69.6 | 127 | 164 | 107 | 93.3 | 67.1 | 84.7 | 53 | 134 | 470 | 27.8 | 29.5 | 75.2 |
| NCC(=O)Nc1ccc(-n2nc(C(F)(F)F)cc2-c2ccc3c(ccc4ccccc43)c2)cc1 + COC(=O)c1sccc1S(=O)(=O)Nc1ccc(Nc2ccccc2)cc1OC [GSK0660] (first compound 1 µM, partner dose 1 µM) | 197 | 86.2 | 74.7 | 160 | 25.7 | 85.6 | 120 | 80.9 | 34.7 | 121 | 295 | 42.3 | 51.1 | 139 | 80.4 | 152 | 47.8 | 60.4 |
| CN(C)S(=O)(=O)c1ccc2c(c1)/C(=C/c1cc3c([nH]1)CCCC3)C(=O)N2 + Cc1cc([N+](=O)[O-])ccc1NS(=O)(=O)c1cc(Cl)ccc1Cl [FH535] (first compound 0.4 µM, partner dose 1 µM) | 627 | 81.7 | 94.9 | 70.9 | 124 | 42.4 | 215 | 282 | 61.2 | 125 | 224 | 45.8 | 88.4 | 191 | 88.5 | 50.7 | 89.7 | 265 |
| CN(NC(=O)CC(=O)NN(C)C(=S)c1ccccc1)C(=S)c1ccccc1 + COc1cc(N2CCC(N3CCN(C)CC3)CC2)ccc1Nc1ncc(Cl)c(Nc2ccccc2S(=O)(=O)C(C)C)n1 [NVP-TAE684] (first compound 0.006 µM, partner dose 0.08 µM) | 126 | 103 | 204 | 306 | 148 | 124 | 222 | 252 | 154 | 82.7 | 80 | 81 | 313 | 268 | 68.6 | 210 | 237 | 65.7 |
| O=S(=O)(c1ccccc1)N(CC(F)(F)F)c1ccc(C(O)(C(F)(F)F)C(F)(F)F)cc1 + O=C1NC(=O)/C(=C/c2ccc(-c3ccc(F)cc3O)o2)S1 [AS252424] (first compound 1.4 µM, partner dose 1 µM) | 42.2 | 53.7 | 93.1 | 102 | 46 | 45.5 | 60.1 | 161 | 59.5 | 72.3 | 86.5 | 114 | 148 | 232 | 16 | 48.6 | 41.9 | 36.3 |
| NCC(=O)Nc1ccc(-n2nc(C(F)(F)F)cc2-c2ccc3c(ccc4ccccc43)c2)cc1 + COc1ccc(COc2ccc(Cc3cnc(N)nc3N)cc2OC)cc1 [GW2580] (first compound 1 µM, partner dose 1 µM) | 43.8 | 109 | 62.6 | 109 | 99.4 | 129 | 321 | 77.9 | 72.3 | 58.2 | 403 | 51.6 | 41.4 | 185 | 109 | 127 | 77.8 | 73.8 |
| O=C(O)C(=O)Nc1sc2c(c1C(=O)O)CCNC2 + O=C1NC(=O)/C(=C/c2ccc(-c3ccc(F)cc3O)o2)S1 [AS252424] (first compound 1.66667 µM, partner dose 1 µM) | 79.7 | 118 | 14.6 | 85.7 | 185 | 41.9 | 176 | 44.3 | 45.6 | 155 | 55.7 | 179 | 30.4 | 104 | 14 | 75.5 | 110 | 87.7 |
| NCC(=O)Nc1ccc(-n2nc(C(F)(F)F)cc2-c2ccc3c(ccc4ccccc43)c2)cc1 + O=C1NC(=O)/C(=C/c2ccc(-c3ccc(F)cc3O)o2)S1 [AS252424] (first compound 1 µM, partner dose 1 µM) | 240 | 138 | 124 | 135 | 141 | 54.5 | 115 | 185 | 38.9 | 46.8 | 93.6 | 86.6 | 120 | 196 | 124 | 33.4 | 110 | 46.6 |
| COc1cc2ncnc(Nc3ccc(Oc4ccccc4)cc3)c2cc1OC + COc1cc(N2CCC(N3CCN(C)CC3)CC2)ccc1Nc1ncc(Cl)c(Nc2ccccc2S(=O)(=O)C(C)C)n1 [NVP-TAE684] (first compound 2 µM, partner dose 0.08 µM) | 95.8 | 78.1 | 43.1 | 51.7 | 44.1 | 162 | 172 | 65.4 | 29.1 | 90 | 95.5 | 72.7 | 85.2 | 161 | 53.9 | 32.6 | 112 | 50.9 |
| Oc1cc(-c2nc(-c3ccccc3)[nH]c2-c2ccncc2)ccc1Cl + O=C1NC(=O)/C(=C/c2ccc(-c3ccc(F)cc3O)o2)S1 [AS252424] (first compound 0.2 µM, partner dose 1 µM) | 105 | 98.5 | 80.9 | 113 | 133 | 86.9 | 89.6 | 163 | 60.4 | 191 | 58.9 | 158 | 31.4 | 132 | 37.2 | 51 | 254 | 135 |
| O=C(O)c1ccc(-c2c[nH]c3ncc(-c4ccccc4)cc23)cc1C1CCCC1 + O=C(Nc1ccccc1)c1cc([N+](=O)[O-])ccc1Cl [GW9662] (first compound 0.16 µM, partner dose 2 µM) | 82.5 | 78.7 | 138 | 219 | 141 | 83.1 | 39.2 | 238 | 124 | 144 | 57.7 | 132 | 160 | 171 | 99.6 | 89.2 | 58.3 | 35.7 |
| COc1ccc2c(c1)CCC1C2CCC2(C)C(NCCCCCCN3C(=O)C=CC3=O)CCC12 (configuration not stated) + O=C1NC(=O)/C(=C/c2ccc(-c3ccc(F)cc3O)o2)S1 [AS252424] (first compound 0.4 µM, partner dose 1 µM) | 198 | 173 | 137 | 107 | 116 | 86.6 | 47.1 | 72.1 | 39.9 | 31.1 | 50.8 | 54.7 | 56.7 | 86.8 | 164 | 25.5 | 99.3 | 46.3 |
| O=C(O)c1ccc(-c2c[nH]c3ncc(-c4ccccc4)cc23)cc1C1CCCC1 + Oc1cc(-c2nc(-c3ccccc3)[nH]c2-c2ccncc2)ccc1Cl [L779450] (first compound 0.16 µM, partner dose 0.2 µM) | 101 | 162 | 117 | 118 | 76.5 | 67.9 | 156 | 198 | 36.1 | 117 | 34.9 | 87.4 | 73.9 | 208 | 57.4 | 61.6 | 123 | 113 |

Copied from the entries so far (2 entries):

| Compound | cleaved PARP positive nuclei fraction (CBRC034) [%] | cleaved PARP positive nuclei fraction (COLO792) [%] | cleaved PARP positive nuclei fraction (COLO800) [%] | cleaved PARP positive nuclei fraction (COLO829) [%] | cleaved PARP positive nuclei fraction (G361) [%] | cleaved PARP positive nuclei fraction (IPC-298) [%] | cleaved PARP positive nuclei fraction (IST-MEL1) [%] | cleaved PARP positive nuclei fraction (LB2518-MEL) [%] | cleaved PARP positive nuclei fraction (LOXIMVI) [%] | cleaved PARP positive nuclei fraction (MZ2-MEL) [%] | cleaved PARP positive nuclei fraction (MeWo) [%] | cleaved PARP positive nuclei fraction (RPMI7951) [%] | cleaved PARP positive nuclei fraction (RVH-421) [%] | cleaved PARP positive nuclei fraction (SkMel28) [%] | cleaved PARP positive nuclei fraction (SkMel30) [%] | cleaved PARP positive nuclei fraction (SkMel5) [%] | cleaved PARP positive nuclei fraction (UACC257) [%] | cleaved PARP positive nuclei fraction (UACC62) [%] |
| --- | --- | --- | --- | --- | --- | --- | --- | --- | --- | --- | --- | --- | --- | --- | --- | --- | --- | --- |
| CCc1ccc(CCOc2ccc(CC3SC(=O)NC3=O)cc2)nc1 (configuration not stated) [pioglitazone] + Cn1cc(/C=C2\C(=O)Nc3cccnc32)c2ccccc21 [GW441756] (first compound 2 µM, partner dose 0.4 µM) | 85.2 | 242 | 204 | 96.6 | 195 | 25 | 121 | 86.2 | 23.3 | 122 | 78.7 | 40.5 | 54.7 | 65.4 | 10.2 | 62.5 | 99.6 | 116 |
| c1cc(-c2cnn3cc(-c4ccc(OCCN5CCCCC5)cc4)cnc23)ccn1 [Dorsomorphin] + O=c1cc(-c2cccc3c2Sc2ccccc2S3)oc(N2CCOCC2)c1 [KU55933] (first compound 0.4 µM, partner dose 1 µM) | 80.5 | 63.6 | 42.2 | 99.2 | 132 | 80.4 | 408 | 105 | 2850 | 84.5 | 28.9 | 113 | 26 | 88.7 | 45.3 | 198 | 141 | 314 |
